These are yes or no findings as the source states them, for the method shown. Binding seen in cells or lysates may run through a third protein. Some results given as binding are weak or reduced against the parent protein; the word gives no strength.
Biological target: prolyl-isomerase Pin1 (endogenous, HeLa cells) (human (endogenous in HeLa)) (UniProt Q13526)
Test: co-IP; Pin1 immunoprecipitated with anti-Pin1 polyclonal antibody from HeLa lysates (IP lysis buffer: 50 mM HEPES pH 7.5, 150 mM NaCl, 1% Triton, 10% glycerol); GRK2 detected by immunoblot and normalised to immunoprecipitated Pin1; cells asynchronous or G2-arrested with 5 uM etoposide for 18 h

Amino acid sequences for entries named in this document (tags omitted).
UniProt Q13526: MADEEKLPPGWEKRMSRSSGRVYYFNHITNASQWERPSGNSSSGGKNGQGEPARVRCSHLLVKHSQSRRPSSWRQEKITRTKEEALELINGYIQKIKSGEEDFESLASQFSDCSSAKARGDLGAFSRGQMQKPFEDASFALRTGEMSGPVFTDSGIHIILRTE
UniProt P25098: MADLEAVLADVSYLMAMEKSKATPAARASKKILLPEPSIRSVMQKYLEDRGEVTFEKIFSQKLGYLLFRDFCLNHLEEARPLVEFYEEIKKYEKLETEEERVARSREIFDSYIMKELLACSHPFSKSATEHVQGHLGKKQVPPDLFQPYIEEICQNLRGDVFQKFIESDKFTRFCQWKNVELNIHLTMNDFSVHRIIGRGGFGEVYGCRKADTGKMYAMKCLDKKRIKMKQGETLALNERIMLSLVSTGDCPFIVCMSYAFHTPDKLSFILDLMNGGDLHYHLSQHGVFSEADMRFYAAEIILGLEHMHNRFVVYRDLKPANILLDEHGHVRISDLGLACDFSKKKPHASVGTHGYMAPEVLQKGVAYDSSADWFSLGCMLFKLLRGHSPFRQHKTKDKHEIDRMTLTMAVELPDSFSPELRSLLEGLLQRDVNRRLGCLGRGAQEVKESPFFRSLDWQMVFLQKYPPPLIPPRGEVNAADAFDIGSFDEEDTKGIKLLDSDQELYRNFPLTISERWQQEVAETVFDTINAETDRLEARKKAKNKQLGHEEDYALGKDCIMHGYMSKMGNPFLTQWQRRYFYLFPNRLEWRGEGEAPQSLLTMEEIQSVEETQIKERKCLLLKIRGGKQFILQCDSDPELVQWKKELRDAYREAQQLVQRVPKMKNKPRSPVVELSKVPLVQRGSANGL

| Substance | binding |
| --- | --- |
| G protein-coupled receptor kinase GRK2 (endogenous, parental HeLa cells) (from UniProt P25098 1-689) | binds |
| wild-type GRK2 stably overexpressed in HeLa cells (HeLa-WT5) (from UniProt P25098 1-689) | binds |

Reference: article PMC8064503
